The list shows a part of the results. Small differences around the control level are noise.

Chains of the proteins cited; added tags and fusions are not shown. Lines headed by an entry give the natural chain unless they say otherwise; changes in a name come on top.
UniProt Q9BWT3: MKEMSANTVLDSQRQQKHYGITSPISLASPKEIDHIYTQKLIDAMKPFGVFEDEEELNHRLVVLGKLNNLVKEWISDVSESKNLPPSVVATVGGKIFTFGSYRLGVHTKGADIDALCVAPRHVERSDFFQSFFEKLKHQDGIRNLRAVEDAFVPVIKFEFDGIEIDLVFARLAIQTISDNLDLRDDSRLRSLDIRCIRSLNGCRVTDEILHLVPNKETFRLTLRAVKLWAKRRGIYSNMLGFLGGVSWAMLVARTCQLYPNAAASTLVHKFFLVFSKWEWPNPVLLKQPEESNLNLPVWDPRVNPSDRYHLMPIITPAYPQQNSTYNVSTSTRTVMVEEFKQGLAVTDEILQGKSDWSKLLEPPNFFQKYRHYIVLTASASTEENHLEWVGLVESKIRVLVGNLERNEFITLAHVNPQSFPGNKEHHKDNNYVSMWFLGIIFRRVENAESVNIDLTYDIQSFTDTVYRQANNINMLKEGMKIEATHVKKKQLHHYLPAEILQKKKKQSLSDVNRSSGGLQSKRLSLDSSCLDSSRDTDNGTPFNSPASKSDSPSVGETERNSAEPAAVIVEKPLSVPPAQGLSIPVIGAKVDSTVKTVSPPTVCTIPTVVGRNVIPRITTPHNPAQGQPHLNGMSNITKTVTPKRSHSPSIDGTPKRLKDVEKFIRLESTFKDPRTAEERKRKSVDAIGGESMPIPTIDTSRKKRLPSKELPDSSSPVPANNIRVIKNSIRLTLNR
UniProt Q9BZL4: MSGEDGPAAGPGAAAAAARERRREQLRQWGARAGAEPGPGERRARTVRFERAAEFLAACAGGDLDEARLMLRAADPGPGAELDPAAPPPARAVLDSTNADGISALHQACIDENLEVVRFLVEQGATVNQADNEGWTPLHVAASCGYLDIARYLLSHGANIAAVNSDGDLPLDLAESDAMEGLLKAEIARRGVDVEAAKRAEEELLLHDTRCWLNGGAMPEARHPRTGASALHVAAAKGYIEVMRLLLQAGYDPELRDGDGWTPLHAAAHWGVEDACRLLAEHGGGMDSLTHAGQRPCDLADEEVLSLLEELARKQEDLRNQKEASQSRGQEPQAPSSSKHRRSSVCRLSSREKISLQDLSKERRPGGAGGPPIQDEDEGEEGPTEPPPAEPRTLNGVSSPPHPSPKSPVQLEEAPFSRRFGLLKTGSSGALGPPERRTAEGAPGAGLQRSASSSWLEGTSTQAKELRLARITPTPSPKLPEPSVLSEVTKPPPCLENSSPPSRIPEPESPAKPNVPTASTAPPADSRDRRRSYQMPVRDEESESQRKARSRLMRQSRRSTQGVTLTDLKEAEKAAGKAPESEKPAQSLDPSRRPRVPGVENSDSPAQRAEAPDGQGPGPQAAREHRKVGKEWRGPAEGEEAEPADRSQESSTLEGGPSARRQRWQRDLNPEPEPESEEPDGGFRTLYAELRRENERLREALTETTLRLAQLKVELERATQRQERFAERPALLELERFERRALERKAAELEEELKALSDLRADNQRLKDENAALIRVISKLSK
UniProt Q9H334: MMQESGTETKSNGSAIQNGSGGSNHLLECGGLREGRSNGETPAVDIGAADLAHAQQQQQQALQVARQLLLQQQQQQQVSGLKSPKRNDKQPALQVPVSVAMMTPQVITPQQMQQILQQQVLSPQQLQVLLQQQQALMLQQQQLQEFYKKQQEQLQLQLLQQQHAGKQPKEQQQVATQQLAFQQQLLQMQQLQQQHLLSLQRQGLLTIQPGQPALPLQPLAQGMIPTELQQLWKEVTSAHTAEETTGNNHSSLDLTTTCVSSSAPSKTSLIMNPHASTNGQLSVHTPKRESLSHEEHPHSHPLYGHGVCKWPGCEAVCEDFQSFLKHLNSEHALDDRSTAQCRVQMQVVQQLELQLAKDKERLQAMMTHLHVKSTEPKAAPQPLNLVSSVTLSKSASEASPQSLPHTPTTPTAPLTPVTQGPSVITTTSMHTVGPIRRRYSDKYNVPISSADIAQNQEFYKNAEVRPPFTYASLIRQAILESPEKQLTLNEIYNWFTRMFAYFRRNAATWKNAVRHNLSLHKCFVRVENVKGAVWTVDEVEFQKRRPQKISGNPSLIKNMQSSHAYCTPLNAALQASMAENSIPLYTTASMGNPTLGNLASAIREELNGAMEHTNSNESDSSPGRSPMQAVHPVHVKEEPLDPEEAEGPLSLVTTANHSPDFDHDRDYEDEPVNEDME
UniProt Q9C010: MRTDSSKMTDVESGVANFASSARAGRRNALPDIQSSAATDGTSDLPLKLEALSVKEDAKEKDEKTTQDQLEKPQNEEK
UniProt Q9C0B5: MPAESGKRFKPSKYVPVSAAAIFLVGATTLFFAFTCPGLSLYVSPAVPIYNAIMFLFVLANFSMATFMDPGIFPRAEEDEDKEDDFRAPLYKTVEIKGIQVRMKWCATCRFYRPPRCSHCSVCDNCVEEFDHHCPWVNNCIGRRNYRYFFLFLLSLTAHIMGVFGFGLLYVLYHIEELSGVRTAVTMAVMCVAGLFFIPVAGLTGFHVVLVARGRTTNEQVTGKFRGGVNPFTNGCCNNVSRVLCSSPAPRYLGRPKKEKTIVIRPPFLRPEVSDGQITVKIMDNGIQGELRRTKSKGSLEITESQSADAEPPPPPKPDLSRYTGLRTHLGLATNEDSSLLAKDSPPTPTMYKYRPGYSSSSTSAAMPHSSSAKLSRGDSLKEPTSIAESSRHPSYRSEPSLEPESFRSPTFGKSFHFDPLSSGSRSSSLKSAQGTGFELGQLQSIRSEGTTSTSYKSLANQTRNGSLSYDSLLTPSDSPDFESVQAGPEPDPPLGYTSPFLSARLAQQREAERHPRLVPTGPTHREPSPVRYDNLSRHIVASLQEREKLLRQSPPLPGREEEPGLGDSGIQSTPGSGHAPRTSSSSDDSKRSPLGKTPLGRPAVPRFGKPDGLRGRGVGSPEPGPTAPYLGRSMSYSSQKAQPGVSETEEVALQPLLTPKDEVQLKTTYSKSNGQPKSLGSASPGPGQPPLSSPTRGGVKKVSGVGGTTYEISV
UniProt Q9C030: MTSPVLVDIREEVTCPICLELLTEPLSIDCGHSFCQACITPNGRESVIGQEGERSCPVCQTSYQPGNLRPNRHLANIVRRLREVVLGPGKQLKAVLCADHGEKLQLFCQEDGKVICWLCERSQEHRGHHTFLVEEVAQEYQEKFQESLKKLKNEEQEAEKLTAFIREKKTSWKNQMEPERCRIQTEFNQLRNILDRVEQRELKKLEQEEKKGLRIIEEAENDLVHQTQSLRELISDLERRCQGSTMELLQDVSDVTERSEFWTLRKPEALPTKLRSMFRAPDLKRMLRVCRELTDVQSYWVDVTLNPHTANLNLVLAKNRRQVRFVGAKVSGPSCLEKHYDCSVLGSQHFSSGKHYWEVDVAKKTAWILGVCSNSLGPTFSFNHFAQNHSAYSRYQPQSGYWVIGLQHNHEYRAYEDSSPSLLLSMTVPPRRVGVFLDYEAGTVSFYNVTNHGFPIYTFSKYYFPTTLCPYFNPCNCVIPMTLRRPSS
UniProt Q9BWJ5: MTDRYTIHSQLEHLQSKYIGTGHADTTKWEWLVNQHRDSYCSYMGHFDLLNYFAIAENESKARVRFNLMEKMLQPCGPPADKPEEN
UniProt Q9H1A4, whole entry: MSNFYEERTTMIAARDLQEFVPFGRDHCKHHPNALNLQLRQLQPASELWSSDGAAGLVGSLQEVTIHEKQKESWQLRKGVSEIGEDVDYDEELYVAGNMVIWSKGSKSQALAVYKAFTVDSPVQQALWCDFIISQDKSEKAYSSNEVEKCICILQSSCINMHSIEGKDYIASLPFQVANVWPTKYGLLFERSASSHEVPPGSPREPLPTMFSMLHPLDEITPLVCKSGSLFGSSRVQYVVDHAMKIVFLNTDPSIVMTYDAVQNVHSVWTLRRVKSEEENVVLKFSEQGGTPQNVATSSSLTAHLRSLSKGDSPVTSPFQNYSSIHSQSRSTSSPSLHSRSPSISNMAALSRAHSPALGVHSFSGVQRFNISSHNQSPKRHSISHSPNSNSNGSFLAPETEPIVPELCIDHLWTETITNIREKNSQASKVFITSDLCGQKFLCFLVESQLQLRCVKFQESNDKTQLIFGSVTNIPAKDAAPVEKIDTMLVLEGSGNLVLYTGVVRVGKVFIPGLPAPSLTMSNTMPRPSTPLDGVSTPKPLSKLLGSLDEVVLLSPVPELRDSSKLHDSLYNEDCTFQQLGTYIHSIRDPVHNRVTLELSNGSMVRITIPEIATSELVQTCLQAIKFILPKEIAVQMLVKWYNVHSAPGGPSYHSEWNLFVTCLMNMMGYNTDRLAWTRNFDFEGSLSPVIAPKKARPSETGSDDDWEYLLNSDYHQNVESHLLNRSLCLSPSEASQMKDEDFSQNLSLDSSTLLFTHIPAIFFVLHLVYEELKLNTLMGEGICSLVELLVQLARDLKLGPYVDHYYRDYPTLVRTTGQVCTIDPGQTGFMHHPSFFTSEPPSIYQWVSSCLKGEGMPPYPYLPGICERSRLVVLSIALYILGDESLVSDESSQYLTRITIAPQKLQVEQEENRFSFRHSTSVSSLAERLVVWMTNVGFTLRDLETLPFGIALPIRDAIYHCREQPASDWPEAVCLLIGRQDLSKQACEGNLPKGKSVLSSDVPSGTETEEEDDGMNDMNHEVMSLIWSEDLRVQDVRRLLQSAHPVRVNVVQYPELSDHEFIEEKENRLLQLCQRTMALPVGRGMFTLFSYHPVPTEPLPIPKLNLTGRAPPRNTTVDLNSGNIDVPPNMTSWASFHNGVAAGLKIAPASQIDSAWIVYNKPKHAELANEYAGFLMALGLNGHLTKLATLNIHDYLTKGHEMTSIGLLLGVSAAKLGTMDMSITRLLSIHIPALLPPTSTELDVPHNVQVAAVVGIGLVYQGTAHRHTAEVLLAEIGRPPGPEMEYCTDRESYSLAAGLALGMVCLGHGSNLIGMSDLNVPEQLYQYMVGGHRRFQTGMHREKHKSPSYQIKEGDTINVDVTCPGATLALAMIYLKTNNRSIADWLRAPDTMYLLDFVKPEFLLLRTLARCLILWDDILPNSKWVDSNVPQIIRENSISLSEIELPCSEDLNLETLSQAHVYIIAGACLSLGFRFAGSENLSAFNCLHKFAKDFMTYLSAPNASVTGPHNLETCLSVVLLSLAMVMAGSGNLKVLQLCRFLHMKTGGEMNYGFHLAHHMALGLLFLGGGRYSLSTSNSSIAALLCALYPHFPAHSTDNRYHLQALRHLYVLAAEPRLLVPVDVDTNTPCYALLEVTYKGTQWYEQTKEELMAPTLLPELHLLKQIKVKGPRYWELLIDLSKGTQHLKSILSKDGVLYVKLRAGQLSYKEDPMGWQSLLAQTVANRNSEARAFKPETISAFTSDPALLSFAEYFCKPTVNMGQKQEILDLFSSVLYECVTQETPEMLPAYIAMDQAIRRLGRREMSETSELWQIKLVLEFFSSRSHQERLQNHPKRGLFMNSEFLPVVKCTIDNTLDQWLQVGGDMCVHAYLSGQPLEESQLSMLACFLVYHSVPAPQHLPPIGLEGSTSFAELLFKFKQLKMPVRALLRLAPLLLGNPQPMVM

Compound in this experiment: CN[C@@H]1C[C@H]2O[C@@](C)([C@@H]1OC)n1c3ccccc3c3c4c(c5c6ccccc6n2c5c31)C(=O)NC4 [staurosporine]
The experiment can be described thus: log2 fold change of tryptic peptide abundance, ligand vs vehicle (limited proteolysis) (log2 ratio); higher = more trypsin-susceptible (destabilized). As to conditions: ligand concentration: 20 uM; sample: K562 cleared lysate; digestion: 4 min, 22 C (HT-PELSA RT4min, Orbitrap Astral).
Consider “PAPOLG (peptide sequence: MKEMSANTVLDSQR, peptide start residue: 1) (UniProt Q9BWT3)”, for which the log2 fold change was found to be 0.373.

As to “PPP1R12C (peptide sequence: TGASALHVAAAK, peptide start residue: 226) (UniProt Q9BZL4)”, the log2 fold change was determined as 0.365.

As to “FOXP1 (peptide sequence: TSLIMNPHASTNGQLSVHTPK, peptide start residue: 267) (UniProt Q9H334)”, the log2 fold change was -0.221.

“PKIB (peptide sequence: TTQDQLEKPQNEEK, peptide start residue: 65) (UniProt Q9C010)”: the log2 fold change was -0.409.

For “ZDHHC5 (peptide sequence: SEGTTSTSYK, peptide start residue: 448) (UniProt Q9C0B5)”, the log2 fold change is -0.502.

With “UniProt Q9C030 (peptide sequence: IIEEAENDLVHQTQSLR, peptide start residue: 215)”, the log2 fold change was -0.251.

For “SF3B5 (peptide sequence: YTIHSQLEHLQSK, peptide start residue: 5) (UniProt Q9BWJ5)”, the log2 fold change is -0.184.

“ANAPC1 (peptide sequence: STSSPSLHSR, peptide start residue: 331) (UniProt Q9H1A4)”: the log2 fold change came to 0.191.
